Results reported in article doi:10.1101/2023.03.07.531572.
Read-outs that look alike come from different tables or passages of the source. Results are given in words; binding and its absence hold for the method and conditions named. Binding seen in cells or lysates may run through a third protein. Some entries that bind do so weakly or less than the wild type. Where a sequence is shown, tags or fusion partners need not be part of it.

Chains of the proteins cited; added tags and fusions are not shown.
UniProt Q9W3M3: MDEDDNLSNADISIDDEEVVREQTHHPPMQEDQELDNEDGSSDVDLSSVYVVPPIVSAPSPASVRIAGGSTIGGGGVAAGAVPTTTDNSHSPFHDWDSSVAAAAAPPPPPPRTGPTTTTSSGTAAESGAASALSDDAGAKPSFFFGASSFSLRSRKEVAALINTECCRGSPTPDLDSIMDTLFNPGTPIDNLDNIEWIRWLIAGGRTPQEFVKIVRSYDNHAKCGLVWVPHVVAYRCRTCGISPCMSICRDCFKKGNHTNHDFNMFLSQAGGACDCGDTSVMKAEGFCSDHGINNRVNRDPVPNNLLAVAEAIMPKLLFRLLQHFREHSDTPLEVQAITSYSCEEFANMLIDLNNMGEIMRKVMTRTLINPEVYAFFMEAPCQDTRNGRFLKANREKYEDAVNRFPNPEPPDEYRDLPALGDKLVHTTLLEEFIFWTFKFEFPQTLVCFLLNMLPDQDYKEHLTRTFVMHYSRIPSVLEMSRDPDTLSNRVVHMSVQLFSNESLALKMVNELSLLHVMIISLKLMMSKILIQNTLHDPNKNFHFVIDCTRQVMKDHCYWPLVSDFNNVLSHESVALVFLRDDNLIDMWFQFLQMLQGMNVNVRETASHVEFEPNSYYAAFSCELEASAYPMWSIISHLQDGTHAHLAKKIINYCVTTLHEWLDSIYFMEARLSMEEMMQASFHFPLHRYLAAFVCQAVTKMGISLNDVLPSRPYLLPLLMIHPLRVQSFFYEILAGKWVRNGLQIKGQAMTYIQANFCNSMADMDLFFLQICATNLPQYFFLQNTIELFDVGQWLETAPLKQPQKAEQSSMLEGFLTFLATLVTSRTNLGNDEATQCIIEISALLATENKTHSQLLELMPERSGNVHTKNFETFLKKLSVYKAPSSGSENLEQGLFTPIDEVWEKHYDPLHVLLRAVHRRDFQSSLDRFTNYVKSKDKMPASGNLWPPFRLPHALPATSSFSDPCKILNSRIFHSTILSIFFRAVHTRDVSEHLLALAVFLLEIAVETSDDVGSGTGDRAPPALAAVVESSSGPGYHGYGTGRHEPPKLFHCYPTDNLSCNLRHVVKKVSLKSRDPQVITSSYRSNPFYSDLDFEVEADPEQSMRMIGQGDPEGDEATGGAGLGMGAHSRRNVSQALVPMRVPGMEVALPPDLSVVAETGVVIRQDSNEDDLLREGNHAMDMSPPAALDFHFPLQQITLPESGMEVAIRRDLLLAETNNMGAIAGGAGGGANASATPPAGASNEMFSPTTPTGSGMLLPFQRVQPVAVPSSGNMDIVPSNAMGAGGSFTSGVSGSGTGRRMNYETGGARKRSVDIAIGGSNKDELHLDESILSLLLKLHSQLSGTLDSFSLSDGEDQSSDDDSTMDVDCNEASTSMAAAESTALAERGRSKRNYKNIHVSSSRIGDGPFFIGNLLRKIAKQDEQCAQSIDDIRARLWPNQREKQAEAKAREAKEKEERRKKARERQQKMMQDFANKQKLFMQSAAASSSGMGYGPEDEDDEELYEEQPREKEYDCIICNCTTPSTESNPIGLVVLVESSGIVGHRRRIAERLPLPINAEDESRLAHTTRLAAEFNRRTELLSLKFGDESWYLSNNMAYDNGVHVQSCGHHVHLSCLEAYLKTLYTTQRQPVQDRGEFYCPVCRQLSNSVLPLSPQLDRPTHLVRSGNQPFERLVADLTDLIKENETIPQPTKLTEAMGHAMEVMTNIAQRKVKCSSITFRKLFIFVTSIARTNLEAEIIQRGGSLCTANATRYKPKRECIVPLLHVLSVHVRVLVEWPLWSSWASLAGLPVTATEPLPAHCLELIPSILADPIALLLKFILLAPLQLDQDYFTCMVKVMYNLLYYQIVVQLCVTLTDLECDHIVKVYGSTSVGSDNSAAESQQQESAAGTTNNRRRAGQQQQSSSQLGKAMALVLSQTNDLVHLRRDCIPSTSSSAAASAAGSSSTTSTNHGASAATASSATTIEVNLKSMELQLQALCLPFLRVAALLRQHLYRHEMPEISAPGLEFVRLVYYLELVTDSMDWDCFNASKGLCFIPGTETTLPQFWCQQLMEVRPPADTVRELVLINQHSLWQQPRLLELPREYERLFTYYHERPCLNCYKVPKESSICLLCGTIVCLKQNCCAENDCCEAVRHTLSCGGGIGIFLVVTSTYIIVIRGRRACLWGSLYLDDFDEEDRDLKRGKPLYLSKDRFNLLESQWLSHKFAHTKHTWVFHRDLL

Tests used:
DIAP1::GFP (Drosophila) [1] = molecular target: T1, DIAP1::GFP (Drosophila) (UniProt Q24306); assay: co-IP
T1 sequence: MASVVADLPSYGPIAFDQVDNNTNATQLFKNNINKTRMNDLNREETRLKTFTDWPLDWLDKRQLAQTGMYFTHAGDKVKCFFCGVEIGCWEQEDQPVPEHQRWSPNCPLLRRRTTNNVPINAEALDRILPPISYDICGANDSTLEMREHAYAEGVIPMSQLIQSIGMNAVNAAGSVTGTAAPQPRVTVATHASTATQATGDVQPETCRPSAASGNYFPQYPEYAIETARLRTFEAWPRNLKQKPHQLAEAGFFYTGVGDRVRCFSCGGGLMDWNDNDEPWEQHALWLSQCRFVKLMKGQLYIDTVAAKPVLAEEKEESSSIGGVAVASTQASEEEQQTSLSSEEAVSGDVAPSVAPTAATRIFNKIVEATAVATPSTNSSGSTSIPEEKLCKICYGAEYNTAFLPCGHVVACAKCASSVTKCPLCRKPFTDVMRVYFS

DIAP1::GFP (Drosophila) [2] = molecular target: T1, DIAP1::GFP (Drosophila); assay: co-IP; remark: listed apart in the source

For “Ubr3::V5 (from UniProt Q9W3M3 1-2219) (enzyme)”, the binding (DIAP1::GFP (Drosophila) [1]) was “binds weakly” and the binding (DIAP1::GFP (Drosophila) [2]) was “binds”.
